Test results as given in doi:10.1101/2020.08.13.249722.

Key:
…-Toyopearl [1] = biological target: T1, …-Toyopearl; test: equilibrium adsorption on peptide resin
T1 sequence (peptide, C-terminus linked to Toyopearl resin): MYRGDPETCVDKGSG

…-Toyopearl [2] = biological target: T2, …-Toyopearl; test: equilibrium adsorption on peptide resin; remark: listed apart in the source
T2 sequence (peptide, C-terminus linked to Toyopearl resin): MDGNLSGIMPVKGSG

[3] = biological target: T3, cyclo[M-AFRLC-K]-Toyopearl; test: bind-and-elute on peptide resin
T3 sequence (peptide, cyclo[M-AFRLC-K], cyclised between M and K; C-terminus linked to Toyopearl resin): MAFRLCKGSG

[4] = biological target: T4, …-Toyopearl (PTCH peptide, positive control); test: equilibrium adsorption isotherm on peptide resin
T4 sequence (peptide, linked to Toyopearl resin): RYSPPPPYSSHS

binding (…-Toyopearl [1]): binds weakly
binding (…-Toyopearl [2]): binds weakly
binding [3]: binds
binding [4]: binds
Substance: tandem WW domain of Yes-Associated Protein 1 (WW-YAP), soluble recombinant human protein (domain or fragment)

No constants are given. Whether binding was seen depends on the method and setting. Binding can be weak; no strength is given.
